The values below come from patent publication US20170050988A1 (priority 2013, published 2017).

For some assays here: Some results come without the dose or concentration used. For some assays here: Strings that start with PEPTIDE1 are HELM notation: dots part the residues, brackets hold end groups and non-standard residues.

Data set [1] can be described thus: general procedure: Fmoc solid-phase peptide synthesis. The settings on record: conjugation step.
The next data set concerns pig articular cartilage. As to the kind of experiment: Ex vivo MRI investigation with pig articular cartilage explants (T1). The settings on record: contrast agent incubated cartilage.

In turn, “PEPTIDE1{[ac].W.Y.R.G.R.L}|PEPTIDE2{[ac].W.Y.R.G.R.L}|PEPTIDE3{[ac].W.Y.R.G.R.L}|CHEM1{[DOTAM-L4]}|CHEM2{[Cy55]}$PEPTIDE1,CHEM1,7:R2-1:R1|PEPTIDE2,CHEM1,7:R2-1:R2|PEPTIDE3,CHEM1,7:R2-1:R3|CHEM2,CHEM1,1:R2-1:R4$$$V2.0” returned a conjugation yield in data set [1] of 75%. AcWYRGRL-DOTA-[Gd3+] [HHY-316Gd] returned a T1 in the data set with pig articular cartilage of 344 ms.
